Measured values taken from PMC7615141.
Results are given in words; binding and its absence hold for the method and conditions named. Binding calls can cover weak binding; strength is not graded here. For part of these data: In cells and extracts the contact can be indirect.

The chains behind the UniProt entries cited, without tags or fusion partners. Where a name states a change or a piece, a line headed by the entry shows the natural chain unless it says otherwise. Residues count along the entry.
UniProt P01033, residues 24-207: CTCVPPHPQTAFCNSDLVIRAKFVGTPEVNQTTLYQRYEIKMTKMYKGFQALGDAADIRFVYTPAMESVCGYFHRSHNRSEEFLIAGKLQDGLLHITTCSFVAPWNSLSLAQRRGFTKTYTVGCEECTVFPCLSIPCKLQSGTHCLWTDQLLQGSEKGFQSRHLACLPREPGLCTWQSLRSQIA
UniProt Q9UKP4: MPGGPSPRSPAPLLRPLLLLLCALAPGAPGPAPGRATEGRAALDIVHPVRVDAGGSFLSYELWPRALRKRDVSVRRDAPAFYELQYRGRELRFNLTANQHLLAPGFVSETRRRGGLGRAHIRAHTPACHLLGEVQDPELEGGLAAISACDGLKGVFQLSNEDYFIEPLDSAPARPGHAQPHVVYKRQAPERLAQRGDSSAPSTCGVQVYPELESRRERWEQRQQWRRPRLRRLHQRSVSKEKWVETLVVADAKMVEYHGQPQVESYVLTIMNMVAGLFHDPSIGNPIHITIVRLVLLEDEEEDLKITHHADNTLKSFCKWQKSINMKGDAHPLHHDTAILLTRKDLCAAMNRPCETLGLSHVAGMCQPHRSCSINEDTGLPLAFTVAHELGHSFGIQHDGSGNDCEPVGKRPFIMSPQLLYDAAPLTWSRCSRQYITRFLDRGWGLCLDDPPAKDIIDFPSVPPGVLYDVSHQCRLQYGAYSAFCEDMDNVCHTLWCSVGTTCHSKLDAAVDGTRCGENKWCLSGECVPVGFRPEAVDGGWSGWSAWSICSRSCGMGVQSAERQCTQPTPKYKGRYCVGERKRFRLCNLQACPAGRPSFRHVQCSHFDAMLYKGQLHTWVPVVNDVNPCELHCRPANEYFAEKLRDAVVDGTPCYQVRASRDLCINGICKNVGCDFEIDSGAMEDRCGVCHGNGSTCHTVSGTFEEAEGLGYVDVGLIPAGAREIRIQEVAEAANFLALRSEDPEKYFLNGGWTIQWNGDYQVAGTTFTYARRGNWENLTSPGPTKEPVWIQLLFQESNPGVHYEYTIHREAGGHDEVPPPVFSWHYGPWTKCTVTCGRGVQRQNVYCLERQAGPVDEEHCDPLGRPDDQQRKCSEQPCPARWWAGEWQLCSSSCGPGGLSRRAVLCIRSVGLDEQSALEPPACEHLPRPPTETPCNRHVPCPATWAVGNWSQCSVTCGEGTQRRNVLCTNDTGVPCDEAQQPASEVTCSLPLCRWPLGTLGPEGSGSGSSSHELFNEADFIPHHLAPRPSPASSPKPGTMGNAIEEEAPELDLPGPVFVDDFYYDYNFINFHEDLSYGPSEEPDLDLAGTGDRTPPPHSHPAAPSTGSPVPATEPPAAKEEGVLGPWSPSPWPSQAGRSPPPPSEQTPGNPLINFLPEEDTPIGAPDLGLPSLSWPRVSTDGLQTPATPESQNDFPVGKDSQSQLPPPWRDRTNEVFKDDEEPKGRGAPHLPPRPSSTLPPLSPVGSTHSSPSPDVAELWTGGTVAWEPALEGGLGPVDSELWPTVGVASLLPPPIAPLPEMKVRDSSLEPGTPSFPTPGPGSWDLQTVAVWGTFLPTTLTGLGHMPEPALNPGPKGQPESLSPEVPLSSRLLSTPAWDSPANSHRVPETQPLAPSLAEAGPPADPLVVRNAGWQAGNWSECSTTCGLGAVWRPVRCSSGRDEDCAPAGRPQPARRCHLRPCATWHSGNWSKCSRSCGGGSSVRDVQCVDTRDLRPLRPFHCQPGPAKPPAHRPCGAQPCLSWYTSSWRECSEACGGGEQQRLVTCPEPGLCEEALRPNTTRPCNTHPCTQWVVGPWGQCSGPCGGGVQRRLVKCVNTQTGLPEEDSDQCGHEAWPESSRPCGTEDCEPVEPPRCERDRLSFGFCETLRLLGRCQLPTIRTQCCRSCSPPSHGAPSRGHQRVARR

Experiments:
[1] = molecular target: TIMP-1-HA (tissue inhibitor of metalloproteinases 1 with HA tag) (human) (UniProt P01033); assay: AlphaScreen or HTRF; the pair ADAMTS-7-FLAG and TIMP-1-HA in the competition experiment (lysates; 0 ng untagged TIMP-1 as reference); 665/620 nm ratio; seven independent experiments
[2] = molecular target: TIMP-1-HA (tissue inhibitor of metalloproteinases 1 with HA tag) (human) (UniProt P01033); assay: co-IP; TIMP-1-HA precipitated from the supernatant of HEK293 cells (Suppl. Fig. S4)
[3] = molecular target: TIMP-1-HA (tissue inhibitor of metalloproteinases 1 with HA tag) (human) (UniProt P01033); assay: co-IP; ADAMTS7-V5 constructs and TIMP-1-HA co-expressed in HEK293 cells; protein lysates; TIMP-1-HA precipitated by an anti-HA antibody, ADAMTS-7 constructs detected by Western blot

Row | Substance | binding [1] | binding [2] | binding [3]
1 | ADAMTS-7-FLAG (from UniProt Q9UKP4) (enzyme) | binds | – | –
2 | full-length ADAMTS-7 with a C-terminal V5-tag (ADAMTS7-V5) (from UniProt Q9UKP4) (enzyme) | – | binds | binds
